Experimental data reported in US20100240641A1, “Aldosterone Synthase and/or 11B-hydroxylase Inhibitors” (priority 2006, published 2010).
Structures were worked out from names or drawings and are uncertain.

Sequences of proteins named here, by UniProt entry; tags and fusion partners are left off. Residues count along the entry.
UniProt P19099, 25-503 limits assumed: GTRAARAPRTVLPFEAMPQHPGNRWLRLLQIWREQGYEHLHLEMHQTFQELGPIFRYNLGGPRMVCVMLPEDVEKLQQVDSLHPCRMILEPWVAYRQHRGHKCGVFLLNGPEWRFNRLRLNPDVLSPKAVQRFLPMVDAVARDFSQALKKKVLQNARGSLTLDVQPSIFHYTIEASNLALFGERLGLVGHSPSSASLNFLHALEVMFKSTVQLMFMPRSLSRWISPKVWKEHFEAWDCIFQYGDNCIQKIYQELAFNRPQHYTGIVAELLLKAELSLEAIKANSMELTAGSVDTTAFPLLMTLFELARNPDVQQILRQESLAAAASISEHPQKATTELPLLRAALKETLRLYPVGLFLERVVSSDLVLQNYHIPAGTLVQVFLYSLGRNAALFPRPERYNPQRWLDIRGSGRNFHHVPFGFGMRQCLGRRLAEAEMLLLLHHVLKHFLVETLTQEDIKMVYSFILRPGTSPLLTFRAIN

target: aldosterone synthase (Homo sapiens, UniProt P19099); test: In vitro aldosterone synthase inhibition: aldosterone production in Ang II-stimulated NCI-H295R cells; details: read-out: AS IC50
Text: In particular, the aldosterone synthase inhibitory activities in vitro can be determined by the following assay.
Human adrenocortical carcinoma NCI-H295R cell line is obtained from American Type Culture Collection (Manassas, Va.). Insulin/transferrin/selenium (ITS)-A supplement (100×), DMEM/F-12, antibiotic/antimycotic (100×), and fetal calf serum (FCS) are purchased from Gibco (Grand Island, N.Y.). Anti-mouse PVT scintillation proximity assay (SPA) beads and NBS 96-well plates are obtained from Amersham (Piscataway, N.J.) and Corning (Acton, Mass.), respectively. Solid black 96-well flat bottom plates were purchased from Costar (Corning; NY). Aldosterone and angiotensin (Ang II) are purchased from Sigma (St. Louis, Mo.). D[1,2,6,7-^3H(N)]aldosterone was acquired from PerkinElmer (Boston, Mass.). Nu-serum was a product of BD Biosciences (Franklin Lakes, N.J.). The NADPH regenerating system, dibenzylfluorescein (DBF), and human aromatase Supersomes® are obtained from Gentest (Woburn, Mass.).
For in vitro measurement of aldosterone activity, human adrenocortical carcinoma NCI-H295R cells are seeded in NBS 96-well plates at a density of 25,000 cells/well in 100 μl of a growth medium containing DMEM/F12 supplemented with 10% FCS, 2.5% Nu-serum, 1 μg ITS/ml, and 1× antibiotic/antimycotic. The medium is changed after culturing for 3 days at 37° C. under an atmosphere of 5% CO2/95% air. On the following day, cells are rinsed with 100 μl of DMEM/F12 and incubated with 100 μl of treatment medium containing 1 μM Ang II and a compound at different concentrations in quadruplicate wells at 37° C. for 24 hr. At the end of incubation, 50 μl of medium is withdrawn from each well for measurement of aldosterone production by an RIA using mouse anti-aldosterone monoclonal antibodies.
Measurement of aldosterone activity can also be performed using a 96-well plate format. Each test sample is incubated with 0.02 μCi of D-[1,2,6,7-^3H(N)]aldosterone and 0.3 μg of anti-aldosterone antibody in phosphate-buffered saline (PBS) containing 0.1% Triton X-100, 0.1% bovine serum albumin, and 12% glycerol in a total volume of 200 μl at room temperature for 1 hr. Anti-mouse PVT SPA beads (50 μl) are then added to each well and incubated overnight at room temperature prior to counting in a Microbeta plate counter. The amount of aldosterone in each sample is calculated by comparing with a standard curve generated using known quantities of the hormone.

Structure (SMILES) | IC50
CCCC1(c2ccc(C#N)cc2OC)C(=O)N(Cc2ccccc2)Cc2cncn21 (stereo not shown) | 4 nM
CCCCC1(c2ccccc2OC)C(=O)N(Cc2ccc(F)cc2)Cc2cncn21 (stereo not shown) | 8 nM
CCC1(c2ccc(C#N)cc2Cl)C(=O)N(Cc2ccccc2)Cc2cncn21 (stereo not shown) | 41 nM
CCCC1(c2ccc(C#N)cc2OC)C(=O)N(Cc2cccc(C)c2)Cc2cncn21 (stereo not shown) | 9 nM
